Source: US10774113B2, “Anti-infective compound” (priority 2015, dated 2020)
At least one compound was matched to its structure with a doubt left.

Tested on: S. aureus USA300 LAC
Assay: Resistance development study (serial passaging)
Format: cell-based, Staphylococcus aureus
Conditions: serial passaging with sub-inhibitory concentrations, 30 days

Question: For `CO[C@H]1/C=C/O[C@@]2(C)Oc3c(C)c(O)c4c(O)c(c(/C=N/N5CCN(C)CC5)c(O)c4c3C2=O)NC(=O)/C(C)=C\C=C\[C@H](C)[C@H](O)[C@@H](C)[C@@H](O)[C@@H](C)[C@H](OC(C)=O)[C@@H]1C` [rifampicin], which spontaneous resistance development is on record?
Answer: rapidly increasing spontaneous resistance
